Results are given in words; binding and its absence hold for the method and conditions named. Sequences can lack the tags named with a protein.
Target: Scube2 (Signal sequence, CUB domain, EGF-like protein 2), FLAG-tagged (human) (UniProt Q9NQ36)
Assay: SEC; conditioned medium with 10% FCS; Superdex200 10/300 GL, PBS, 4°C; fractions TCA-precipitated and immunoblotted (same stripped blot reprobed)

B1: Scube2 (Signal sequence, CUB domain, EGF-like protein 2), FLAG-tagged (protein, UniProt Q9NQ36 32-999)
chain: VPPGRGRAAGPQEDVDECAQGLDDCHADALCQNTPTSYKCSCKPGYQGEGRQCEDIDECGNELNGGCVHDCLNIPGNYRCTCFDGFMLAHDGHNCLDVDECLENNGGCQHTCVNVMGSYECCCKEGFFLSDNQHTCIHRSEEGLSCMNKDHGCSHICKEAPRGSVACECRPGFELAKNQRDCILTCNHGNGGCQHSCDDTADGPECSCHPQYKMHTDGRSCLEREDTVLEVTESNTTSVVDGDKRVKRRLLMETCAVNNGGCDRTCKDTSTGVHCSCPVGFTLQLDGKTCKDIDECQTRNGGCDHFCKNIVGSFDCGCKKGFKLLTDEKSCQDVDECSLDRTCDHSCINHPGTFACACNRGYTLYGFTHCGDTNECSINNGGCQQVCVNTVGSYECQCHPGYKLHWNKKDCVEVKGLLPTSVSPRVSLHCGKSGGGDGCFLRCHSGIHLSSDVTTIRTSVTFKLNEGKCSLKNAELFPEGLRPALPEKHSSVKESFRYVNLTCSSGKQVPGAPGRPSTPKEMFITVEFELETNQKEVTASCDLSCIVKRTEKRLRKAIRTLRKAVHREQFHLQLSGMNLDVAKKPPRTSERQAESCGVGQGHAENQCVSCRAGTYYDGARERCILCPNGTFQNEEGQMTCEPCPRPGNSGALKTPEAWNMSECGGLCQPGEYSADGFAPCQLCALGTFQPEAGRTSCFPCGGGLATKHQGATSFQDCETRVQCSPGHFYNTTTHRCIRCPVGTYQPEFGKNNCVSCPGNTTTDFDGSTNITQCKNRRCGGELGDFTGYIESPNYPGNYPANTECTWTINPPPKRRILIVVPEIFLPIEDDCGDYLVMRKTSSSNSVTTYETCQTYERPIAFTSRSKKLWIQFKSNEGNSARGFQVPYVTYDEDYQELIEDIVRDGRLYASENHQEILKDKKLIKALFDVLAHPQNYFKYTAQESREMFPRSFIRLLRSKVSRFLRPYK
With B1 the binding was “no binding”.
